# Counter-ions that a name gives are not always drawn. The list shows a part of the results. Many values rest on one well or one pass, so single values are uncertain.
# Test system: A2780
# Assay: cell growth inhibition ratio vs untreated control (CCK8); higher = stronger inhibition of cell viability
# Conditions: 10 µM; 48 h
# Experimental: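 Natural product library (Topscience) screened at 10 µM final concentration for 48 h on ovarian cancer A2780 cells and patient-derived ovarian cancer cells (PDC) in 96-well plates; viability read by CCK8 and reported as inhibition ratio (%) relative to untreated control. Single-dose primary screen.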
row,Compound,cell growth inhibition ratio [%]
1,CCN1C[C@]2(OC(=O)c3ccccc3NC(C)=O)CC[C@H](OC)[C@@]34[C@@H]2C[C@@H]([C@@H]13)[C@@]1(O)C[C@H](OC)[C@H]2C[C@@H]4[C@]1(O)[C@H]2OC [Lappaconitine],7.93
2,C[C@]12CC[C@H]3[C@@H](CCC4=CC(=O)CC[C@@]43C)[C@@H]1CC[C@@H]2O [Testosterone],9.74
3,c1cc2c(cc1[C@H]1OC[C@H]3[C@@H]1CO[C@@H]3c1ccc3c(c1)OCO3)OCO2 [Sesamin],6.39
4,COc1cc([C@@H]2c3cc4c(cc3[C@@H](O)[C@H]3COC(=O)[C@H]23)OCO4)cc(OC)c1O [4'-Demethylepipodophyllotoxin],78.2
5,C=C(C)[C@H]1Cc2c(ccc3c2O[C@@H]2COc4cc(OC)c(OC)cc4[C@@H]2C3=O)O1 [Rotenone],82.8
6,C[C@@H]1CC[C@@]2(OC1)O[C@H]1[C@@H](O)[C@H]3[C@@H]4CC[C@H]5C[C@@H](O[C@@H]6O[C@H](CO)[C@H](O[C@@H]7O[C@H](CO)[C@@H](O)[C@H](O[C@@H]8OC[C@@H](O)[C@H](O)[C@H]8O)[C@H]7O[C@@H]7O[C@H](CO)[C@H](O)[C@H](O[C@@H]8O[C@H](CO)[C@@H](O)[C@H](O)[C@H]8O)[C@H]7O)[C@H](O)[C@H]6O)[C@H](O)C[C@]5(C)[C@H]4CC[C@]3(C)[C@H]1[C@@H]2C [Digitonin],91.8
7,CNC1CC(N)C(O)C(OC2OC(CO)C(O)C3OC4(OC(C(N)CO)C(O)C(O)C4O)OC23)C1O (stereo not given) [Hygromycin B],24.6
8,C[C@H]1C(=O)O[C@@H]2CCN3CC=C(COC(=O)[C@](C)(O)[C@]1(C)O)[C@H]23 [Monocrotaline],2.97
9,COc1cc(C(=O)O)cc(OC)c1OC [Gallic acid trimethyl ether],-2.51
10,COc1cc([C@@H]2c3cc4c(cc3[C@H](O)[C@H]3COC(=O)[C@@H]23)OCO4)cc(OC)c1OC [Picropodophyllin (PPP)],89.1
11,CC(C)(C)[C@]1(O)CC2OC(=O)CC23C(=O)OC2OC(=O)[C@H](O)C231 (stereo not given in full) [Bilobalide],19.9
12,O=C1CCC[C@@H]2[C@H]3CCCN4CCC[C@H](CN12)[C@@H]34 [Sophoridine],0.373
13,O=c1ccc2ccc3occc3c2o1 [Isopsoralen],9.39
14,CC1=C2C[C@H]3[C@@H](CC=C4C[C@@H](O)CC[C@@]43C)[C@@H]2CC[C@]12O[C@@H]1C[C@H](C)CN[C@H]1[C@H]2C [Cyclopamine],9.26
15,"COc1ccc(C=Cc2cc(OC)cc(OC)c2)cc1 [3,5,4'-Trimethoxystilbene]",9.42
16,COc1cc2c(cc1OC)C13CCN4CC5=CCOC6CC(=O)N2C1C6C5CC43 (stereo not given) [Brucin],19.9
17,C[C@H]1CCC/C=C/[C@@H]2C[C@H](O)C[C@H]2[C@H](O)/C=C/C(=O)O1 [Brefeldin A],90
18,CC(C)c1ccc2c(c1O)CC[C@H]1C3=C(CC[C@]21C)C(=O)OC3 [Triptophenolide],5.44
19,S=C=NCc1ccccc1 [Benzyl isothiocyanate],37
20,COc1cc(O)cc(/C=C/c2ccc(O)cc2)c1 [Pinostilbene],0.271

row,Compound,cell growth inhibition ratio [%]
1,C[C@]12CCC(=O)C=C1CC[C@@H]1[C@@H]2C(=O)C[C@]2(C)C(=O)CC[C@@H]12 [Adrenosterone],2.88
2,CC[C@@]1([C@@H]2O[C@@H]([C@H]3O[C@@](O)(CO)[C@H](C)C[C@@H]3C)C[C@@H]2C)CC[C@H]([C@]2(C)CC[C@]3(C[C@H](O)[C@@H](C)[C@@H]([C@@H](C)[C@@H](OC)[C@H](C)C(=O)O)O3)O2)O1 [Monensin sodium salt],78.8
3,CN(C)[C@@H]1C(=O)C(C(N)=O)=C(O)[C@@]2(O)C(=O)C3=C(O)c4c(O)ccc(Cl)c4[C@@](C)(O)[C@H]3C[C@@H]12 [Chlortetracycline hydrochloride],26.2
4,CC(=O)OC(C)(C)/C=C/C(=O)[C@](C)(O)[C@H]1[C@H](O)C[C@@]2(C)[C@@H]3CC=C4[C@H](C[C@H](O)C(=O)C4(C)C)[C@]3(C)C(=O)C[C@]12C [Cucurbitacin B],89.9
5,COc1ccc2c(c1OC)CN1CCc3cc4c(cc3C1C2)OCO4 (stereo not given) [Tetrahydroberberine THB],0.484
6,CC(=O)O[C@H]1[C@H]2[C@@H](OC(=O)Cc3ccccc3)[C@@H](C)C[C@]2(OC(C)=O)C(=O)/C(C)=C/[C@@H]2[C@H](CC[C@@]13CO3)C2(C)C [Euphorbiasteroid],30.9
7,CC1=C2[C@H]3OC(=O)[C@@H](C)[C@@H]3CC[C@@]2(C)C=CC1=O [α-santonin],-1.92
8,CNC(=O)Oc1ccc2c(c1)[C@]1(C)CCN(C)[C@@H]1N2C [Physostigmine Salicylate],31.5
9,COC(=O)C1=CCCN(C)C1 [Arecoline HBr],-1.93
10,NCCc1ccccc1 [Phenethylamine],12.3
11,COC1=C[C@@H]2[C@@H]3Cc4ccc(OC)c(O)c4[C@]2(CCN3C)CC1=O [Sinomenine hydrochloride],0.272
12,C[C@H]1O[C@H](O[C@H]2[C@H](O)[C@@H](O)[C@@H](O)[C@H](O)[C@@H]2O)[C@@H](N)C[C@@H]1NC(=N)C(=O)O [Kasugamycin hydrochloride],17.6
13,CN1[C@@H]2C[C@@H](OC(=O)[C@H](CO)c3ccccc3)C[C@H]1[C@@H]1O[C@@H]12 [Scopolamine HBr trihydrate],4.91
14,CC1C(=O)OC2C(O)C34C5OC(=O)C3(OC3OC(=O)C(O)C34C(C(C)(C)C)C5O)C12O (stereo not given) [Ginkgolide C],22.1
15,CCCCCCCCC(=O)NCc1ccc(O)c(OC)c1 [Nonivamide],-4
16,C[C@@]12C(=O)OC(=O)[C@]1(C)[C@H]1CC[C@@H]2O1 [Cantharidin],89
17,CN1[C@@H]2CC[C@H]1C[C@@H](OC(=O)C(CO)c1ccccc1)C2 (stereo not given in full) [Atropine],14.8
18,CCC(=O)O[C@H]1CC[C@H]2[C@@H]3CCC4=CC(=O)CC[C@]4(C)[C@H]3CC[C@]12C [Testosterone propionate],20.6
19,O=c1cccc2n1C[C@@H]1CNC[C@H]2C1 [Cytisine],1.32
20,C[C@]12CC[C@H](O)C[C@H]1CC[C@@H]1[C@@H]2CC[C@]2(C)[C@@H](c3ccc(=O)oc3)CC[C@]12O [Bufalin],85.6

# Single entries from the entries so far:
# cell growth inhibition ratio [%] with COC1=C[C@@H]2[C@@H]3Cc4ccc(OC)c(O)c4[C@]2(CCN3C)CC1=O [Sinomenine hydrochloride] reads 0.272
# cell growth inhibition ratio [%] with CN(C)[C@@H]1C(=O)C(C(N)=O)=C(O)[C@@]2(O)C(=O)C3=C(O)c4c(O)ccc(Cl)c4[C@@](C)(O)[C@H]3C[C@@H]12 [Chlortetracycline hydrochloride] reads 26.2

# Source: the supplement of paper PMC10373366
